The record followed here is PMC11272598, “RG7774 (Vicasinabin), an orally bioavailable cannabinoid receptor 2 (CB2R) agonist, decreases retinal vascular permeability, leukocyte adhesion, and ocular inflammation in animal models” (Frontiers in Pharmacology, 2024).

This series deals with STZ-induced diabetes retinal vascular permeability. Kind of series: Rats with STZ-induced type 1 diabetes (fluorophotometry). The settings on record: STZ diabetic rats, 10 mg/kg daily oral gavage 5 weeks, 6 weeks after STZ. Format: in vivo, Long Evans rats. As for the experimental part: Twenty-six male Long Evans rats (outbred) (Charles River Laboratories, Sulzfeld, Germany) aged 7 weeks and weighing 250–270 g at the beginning of the study were housed in individually ventilated cages with a maximum density of n = 2 rats per cage with the same sex and monitored daily. Bedding for diabetic animals was changed daily. The room was kept at 20°C–24°C with 50%–60% humidity and a 12/12 h light-dark cycle. Rats received a standard diet and water ad libidum, in addition to soaked food or soft diet. For animal welfare and for dosing purposes, animals were weighed every other day. Rats were sacrificed if weight loss was greater than 20% of the original weight, or more than 20% of body gain within 1 week.
Animals were fasted overnight and injected the following morning with IP 60 mg/kg (60 mg/mL at 1 mL/kg) STZ as reported previously ([Kim et al., 2007]; [Furman, 2015]) in 0.05 M sodium citrate buffer (pH 4.5). […]
To quantify fluorotron measurements, raw data were generated, exported as .txt files, and plotted using Microsoft Excel. The average AUC was calculated for 5 steps in the region of the scans corresponding to the vitreous peak. […] All data are expressed as mean ± SEM ng/mL ratios of vitreous:plasma fluorescein. Fluorophotometry data were analyzed using 2-way ANOVA followed by Newman–Keuls multiple comparisons test. […]

`Cn1nnnc1Cn1nnc2c(N3CC[C@H](O)C3)nc(C(C)(C)C)nc21` [RG7774, (S)-1-(5-tert-butyl-3-[(1-methyl-1H-tetrazol-5-yl)methyl]-3H-[1,2,3]triazolo[4,5-d]pyrimidin-7-yl)pyrrolidin-3-ol] displayed a body weight of 359.3 g.
